At least one compound was matched to its structure with a doubt left.
Columns and labels:
[1] = tested on: AoPRT-L promoter-GUS fusion; assay: AoPRT-L promoter-GUS expression in transgenic tobacco (fluorimetric GUS assay); type: in vivo, Nicotiana tabacum (cv Samsun); details: comparative expression pattern, treatment with the compound
Experimental: The AoPRT-L promoter construct (p22-GUS(INT) Bin 19) was transformed into Nicotiana tabacum (cv Samsun) using standard Agrobacterium tumefaciens-mediated transformation techniques (Draper et al., (1988): Plant Genetic Transformation and Gene Expression—A Laboratory Manual. Blackwell Scientific Publications, Oxford, UK). The expression of the GUS gene driven by the AoPRT-L promoter was analysed using assays described previously (Draper et al., (1988) supra).
Plants were sprayed once, allowed to dry and then sprayed again on the same day (day 0). After 3 or 6 days leaf cores were taken and GUS activity was measured using a standard fluorimetric assay. […] Leaf cores from tobacco harbouring the AoPRT-L promoter fusion with GUS were floated for 3 or 6 days on water containing increasing concentrations of BTH after which time GUS activity in the leaf discs was measured fluorometrically.
Wounding of tobacco leaves (using the hammer method) or infection of tobacco with Pseudomonas syringae pathovar phaseolicola induces local accumulation of the wound-related phytohormone jasmonic acid (JA) (Kenton et al., submitted; Mur et al., (1997) Trends in Microbiol 5:297-300). […]

PR-1a promoter-GUS = details: comparative expression pattern, treatment with the compound; cited from earlier work

Q: With `CSC(=O)c1cccc2nnsc12` [BTH, benzo(1,2,3)thiadiazole-7-carbothoic acid S-methyl ester] as the molecule, how does the “AoPRT-L expression on treatment (Table 2)” value [1] read?
A: +

Q: What about the “PR-1a expression on treatment (Table 2)” value (PR-1a promoter-GUS) of the same molecule?
A: +

From patent US6841720B1, “Inducible promoters” (Biogemma UK LTD, priority 1998, dated 2005)
